Source: the NIST ThermoML archive (doi:10.1016/j.fluid.2010.02.038)
Numbers after ± are expanded uncertainties.

Experiment: relative permittivity at various frequencies (dimensionless); xn = mol fraction of the nth substance listed
Conditions: 303.15 K; 101 kPa; Liquid; Frequency=1 MHz; Capacitive measurement method at f=1 MHz; x2 = 0

relative permittivity: 37.72 ± 0.23
SMILES: CC(=O)N(C)C [N,N-dimethylethanamide] + NCCO
